This note sets out measurements from PMC13346543.

The exact form of at least one protein or probe is not confirmed. A negative result means that nothing was seen under these conditions. Tags and fusion partners may be left off the protein sequences shown.

Data set [1] deals with T1, GST-NRF1 (UniProt Q16656).
T1 sequence (looked up): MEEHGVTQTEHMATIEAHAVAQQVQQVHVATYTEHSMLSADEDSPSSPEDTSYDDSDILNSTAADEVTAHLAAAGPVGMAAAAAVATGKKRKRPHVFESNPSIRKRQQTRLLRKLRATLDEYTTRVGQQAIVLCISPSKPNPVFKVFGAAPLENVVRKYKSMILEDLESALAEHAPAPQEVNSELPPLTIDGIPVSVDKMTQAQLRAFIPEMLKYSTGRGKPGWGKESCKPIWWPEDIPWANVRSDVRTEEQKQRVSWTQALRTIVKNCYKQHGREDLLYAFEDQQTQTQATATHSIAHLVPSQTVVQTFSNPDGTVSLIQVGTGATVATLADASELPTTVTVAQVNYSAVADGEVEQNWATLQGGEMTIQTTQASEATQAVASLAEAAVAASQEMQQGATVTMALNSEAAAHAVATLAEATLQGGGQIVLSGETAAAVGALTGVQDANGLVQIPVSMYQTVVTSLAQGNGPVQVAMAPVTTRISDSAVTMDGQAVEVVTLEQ
Briefly: EMSA. As to conditions: Chemiluminescent EMSA kit (Beyotime), manufacturer's instructions; pH and temperature not stated; recombinant protein; residues 1-503; protein details: N-terminal GST (pGEX-4T-1); label: 3'-biotin. On the technique in general: In EMSA bound probe runs differently from free probe, usually more slowly.

The target in data set [2] is T1, GST-NRF1. Briefly: competition with a labelled probe. As to conditions: 10x cold competitor vs biotin EZH2-bio1, does not block; Chemiluminescent EMSA kit (Beyotime), manufacturer's instructions; pH and temperature not stated; recombinant protein; residues 1-503; protein details: N-terminal GST (pGEX-4T-1).

Consider “ATCGCGCCATTGCACTCCAG (double strand) [EZH2-bio2]”, for which, in data set [1], the binding result is “no binding”.

For the sequence “GCGCGCGGGGAAACGAGCGC (double strand) [EZH2-bio3]”, the binding result in data set [1] is recorded as “no binding”.

For “TTACAGCGAACCCCGCCGCTGGAGGTCAGTCCGTTGGTCTGCGCC (double strand) [EZH2-mut cold]”, the binding result in data set [2] is recorded as “no binding”.
